From publication doi:10.1101/2023.01.26.525711
Results are given in words; binding and its absence hold for the method and conditions named. In cells and extracts the contact can be indirect. Binding calls can cover weak binding; strength is not graded here. Where a sequence is shown, tags or fusion partners need not be part of it.

Chains of the proteins cited; added tags and fusions are not shown. Lines headed by an entry give the natural chain unless they say otherwise; changes in a name come on top.
UniProt Q38997: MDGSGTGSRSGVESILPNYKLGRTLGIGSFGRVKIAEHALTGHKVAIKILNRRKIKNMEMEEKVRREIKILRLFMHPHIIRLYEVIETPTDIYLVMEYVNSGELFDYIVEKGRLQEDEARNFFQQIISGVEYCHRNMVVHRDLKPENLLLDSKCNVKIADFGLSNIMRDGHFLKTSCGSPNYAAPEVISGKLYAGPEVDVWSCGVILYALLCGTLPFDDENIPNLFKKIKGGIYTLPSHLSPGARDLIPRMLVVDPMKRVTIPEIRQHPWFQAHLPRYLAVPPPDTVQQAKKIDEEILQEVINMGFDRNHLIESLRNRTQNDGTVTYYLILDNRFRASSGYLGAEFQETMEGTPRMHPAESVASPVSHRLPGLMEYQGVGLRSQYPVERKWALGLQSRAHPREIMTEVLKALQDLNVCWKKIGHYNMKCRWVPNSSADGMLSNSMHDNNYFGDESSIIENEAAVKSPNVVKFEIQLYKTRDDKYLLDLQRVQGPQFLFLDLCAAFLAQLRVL

Target: T1, HOS1-GFP (35S::HOS1-GFP/hos1 complementation line 13-9) (Arabidopsis thaliana) (UniProt Q84JU6)
T1 sequence: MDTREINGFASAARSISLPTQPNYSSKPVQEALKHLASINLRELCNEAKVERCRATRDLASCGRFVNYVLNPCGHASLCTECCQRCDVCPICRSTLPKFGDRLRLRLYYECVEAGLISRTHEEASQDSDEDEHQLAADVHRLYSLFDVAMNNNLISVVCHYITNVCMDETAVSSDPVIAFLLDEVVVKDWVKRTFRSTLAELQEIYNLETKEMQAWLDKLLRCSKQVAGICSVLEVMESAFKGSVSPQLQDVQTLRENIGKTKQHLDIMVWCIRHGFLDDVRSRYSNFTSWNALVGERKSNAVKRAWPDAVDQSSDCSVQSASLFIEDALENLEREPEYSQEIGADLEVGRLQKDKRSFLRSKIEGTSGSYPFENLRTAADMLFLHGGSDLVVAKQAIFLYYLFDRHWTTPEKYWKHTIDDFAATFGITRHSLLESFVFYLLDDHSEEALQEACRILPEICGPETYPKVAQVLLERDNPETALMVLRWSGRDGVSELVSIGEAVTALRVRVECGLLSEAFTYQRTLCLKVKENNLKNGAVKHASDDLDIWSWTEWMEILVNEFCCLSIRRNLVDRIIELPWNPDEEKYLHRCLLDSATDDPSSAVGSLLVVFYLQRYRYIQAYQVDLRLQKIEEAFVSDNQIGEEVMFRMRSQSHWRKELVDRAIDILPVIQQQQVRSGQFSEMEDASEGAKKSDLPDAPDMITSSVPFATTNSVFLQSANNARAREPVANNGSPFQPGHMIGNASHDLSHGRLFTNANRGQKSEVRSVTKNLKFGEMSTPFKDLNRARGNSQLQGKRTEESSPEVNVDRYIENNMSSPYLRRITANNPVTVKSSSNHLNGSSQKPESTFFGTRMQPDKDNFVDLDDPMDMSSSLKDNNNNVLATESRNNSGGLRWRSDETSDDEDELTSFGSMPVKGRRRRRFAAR
Experiment: co-IP

## SnRK1α1 catalytic subunit, endogenous (from UniProt Q38997)
  binding: binds
